Reference: PubChem BioAssay AID504834 (National Center for Advancing Translational Sciences (NCATS), 2011)
About 22,000 (6.9%) of roughly 320,000 compounds were called active. This list was built around the results that the source calls inconclusive (neither active nor inactive); the mix of calls is not that of the screen. Calls come from the whole dose curve; as a rule, active = well fitted inhibition curve with a large enough effect; inconclusive = small, poorly fitted or top-dose-only effect, or another doubt; inactive = no such curve, though single readings can be large or run the other way. Potencies beside an inconclusive call are fits to weak or partial responses and may not hold up.

Assay: Primary qHTS for delayed death inhibitors of the malarial parasite plastid, 96 hour incubation
Settings: P. falciparum luciferase reporter growth; series mostly up to 28.7 µM; activity change, negative = inhibition: at the top concentration
Outline: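 P. falciparum expressing integrated firefly luciferase grown in erythrocytes (2% hematocrit, 0.05% parasitemia final) with compounds for 96 hours at 37 C, 5% CO2. Growth inhibition read as loss of luminescence after adding luciferase detection reagent.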
% is set by controls: 0 for no effect and ±100 for the full control effect; potency is the fitted concentration of half-maximal effect.

Structure (SMILES)	activity change, negative = inhibition	Potency
CCC(C)N(C(=O)COC(=O)c1[nH]c(C)c(C(C)=O)c1C)C1CCS(=O)(=O)C1 (stereo not given)	inactive: -19.6%	–
O=C(NNc1nc2cc3c(cc2s1)OCCO3)c1ccccc1	inactive: 235%	–
Cc1ccc(/C=N/NC(=O)c2cc3c(ccc4ccccc43)o2)cc1[N+](=O)[O-]	–	inconclusive: 0.208 µM [inhibitor, full curve, poor fit]
COc1cccc(CNC(=O)CCC2CCCN(C(=O)Cc3ccccc3F)C2)c1 (stereo not given)	inactive: 12.7%	–
O=C(NCc1ccccc1)C1CCCN(S(=O)(=O)c2ccc(Br)cc2)C1 (stereo not given)	–	active: 0.294 µM
CC(OCCN1CCCC1)(c1ccc(F)cc1)c1ccc(F)cc1	–	inconclusive: 18.5 µM [inhibitor, single point]
CCC(C)[C@H](NC(=O)c1cn(CC)c2cc3c(cc2c1=O)OCO3)C(=O)NCCCn1ccnc1 (stereo not given in full)	inactive: -22.5%	–
Cc1onc(-c2c(Cl)cccc2Cl)c1C(=O)NCc1ccco1	–	inconclusive: 14.7 µM [inhibitor, single point]
CC(O)CNCc1ccc(-c2ccccc2)cc1 (stereo not given)	inactive: -11.5%	–
CC1CCN(c2ccccc2NC(=S)NC(=O)C(C)(C)C)CC1	–	inconclusive: 2.62 µM [inhibitor, single point]
Cc1ccc(N2CCN(S(=O)(=O)c3ccc(Cl)s3)CC2C)cc1 (stereo not given)	–	inconclusive: 18.5 µM [inhibitor, single point]
CC1CCN(CCCCOc2ccc(C(C)(C)C)cc2)CC1	–	inconclusive: 18.5 µM [inhibitor, single point]
CC(C)c1ccc(NC2=NCC(=O)N2Cc2cccs2)cc1	inactive: 29.8%	–
COc1ccc(/C=C(/CC(=O)Nc2ccc(C)cc2)c2nc3ccccc3s2)cc1	–	inconclusive: 18.5 µM [inhibitor, single point]
COC(=O)c1ccccc1NC(=O)C1CCN(C(=O)c2ccc(OC)cc2)CC1	–	active: 11.7 µM
CCOC(=O)/C(=C\C=C1/Sc2cc(OCC)c(OCC)cc2N1CC)C(C)=O	–	inconclusive: 7.38 µM [inhibitor, partial curve, poor fit]
Cc1cc(=O)[nH]c(N/N=C/c2cc(C)n(CC(F)(F)F)c2C)n1	–	inconclusive: 0.104 µM [inhibitor, full curve, poor fit]
Cn1cc(Br)c(-c2cccc(N3C(=O)CCCC3=O)c2)n1	inactive: 9.38%	–
CCCC1c2ccc(C)n2CCN1C(=O)Nc1ccc(F)cc1 (stereo not given)	inactive: 13.8%	–
COc1ccc(S(=O)(=O)N2CCN(c3ccccc3OC)CC2)cc1OC	–	inconclusive: 0.294 µM [inhibitor, partial curve, poor fit]
Cc1ccc(NC(=O)COc2coc(CN3CCc4ccccc43)cc2=O)c(C)c1	inactive: -18.3%	–
COc1ccc(Cl)cc1S(=O)(=O)N1CCC(C(=O)NCC2CCCO2)CC1 (stereo not given)	–	inconclusive: 7.38 µM [inhibitor, partial curve, poor fit]
CCOP(=O)(OCC)C(Nc1ccc(OC)cc1)c1ccco1 (stereo not given)	inactive: 203%	–

Structure (SMILES)	activity change, negative = inhibition	Potency
Cc1cc(C)c(S(=O)(=O)Nc2ccccc2C(=O)N2CCCC2)c(C)c1	–	inconclusive: 18.5 µM [inhibitor, single point]
O=C(Cn1nc(Cc2ccncc2)c2ccccc2c1=O)Nc1cccnc1Cl	inactive: -27.7%	–
CN1/C(=C\C(=O)C[n+]2cccc(C(N)=O)c2)C(C)(C)c2ccccc21	–	inconclusive: 9.28 µM [inhibitor, single point]
CCCn1c(=O)n(C)c(=O)c2c(SC(C)C(=O)NCC3CCCO3)nc(CC(C)C)nc21 (stereo not given)	–	inconclusive: 10.4 µM [inhibitor, partial curve]
Cc1nn2c(nc(N3CCOCC3)c3ccccc32)c1C=C(C#N)C#N	inactive: 23.4%	–
Cn1c(N)c(C(=O)COC(=O)CCCOc2ccc(Cl)cc2Cl)c(=O)n(C)c1=O	inactive: 23.1%	–
O=C(COc1ccccc1O)Nc1ccccc1Cl	inactive: 0%	–
Cc1ccc(NC(=O)c2ccccc2NC(=O)CCC(=O)O)cc1	–	inconclusive: 6.57 µM [inhibitor, partial curve, poor fit]
COC(=O)c1cc(-c2ccc(S(=O)(=O)N3CCCC3)cc2)c(C(F)(F)F)s1	–	inconclusive: 8.28 µM [inhibitor, single point]
CC(C)N(Cc1nc(-c2ccc(Cl)cc2)no1)C(=O)/C=C/c1ccccc1	–	inconclusive: 11.7 µM [inhibitor, single point]
COc1ccc(C)cc1N/C(N)=N/c1nc(C)cc(C)n1	–	inconclusive: 13.1 µM [inhibitor, single point]
CNCC[C@H](Oc1ccc(C(F)(F)F)cc1)c1ccccc1	–	inconclusive: 14.7 µM [inhibitor, single point]
CCOC(=O)CN1C(=O)S/C(=C/c2ccc(OC)c([N+](=O)[O-])c2)C1=O	–	inconclusive: 11.7 µM [inhibitor, single point]
C/C(=N\Nc1ccc(Cl)c(C(=O)O)c1)c1ccc(Br)s1	inactive: 34.3%	–
COc1ccc(OC)c(S(=O)(=O)NCC2CCCO2)c1 (stereo not given)	–	inconclusive: 13.1 µM [inhibitor, partial curve, poor fit]
O=C(N/N=C\c1ccc([N+](=O)[O-])s1)c1cncc(Br)c1	–	active: 3.29 µM
CC(C)(C)NC(=O)NC(=O)COC(=O)c1cccc(NS(=O)(=O)c2ccc(F)c(F)c2)c1	inactive: 7.65%	–
CCN(C(=O)CSc1nnc2nc(C)cc(C)n12)c1ccccc1	–	inconclusive: 11.7 µM [inhibitor, single point]
O=C(O)c1ccc(NS(=O)(=O)c2ccc(C(=O)Nc3ccccc3)cc2)cc1	–	inconclusive: 20.8 µM [inhibitor, partial curve, poor fit]
COc1cccc(/C=N/NC(=O)c2nnn(-c3nonc3N)c2C(C)C)c1OCc1ccc(F)cc1	–	inconclusive: 18.5 µM [inhibitor, single point]
COc1ccc(OC)c(NC(=O)CN(Cc2ccccc2)S(C)(=O)=O)c1	–	inconclusive: 13.1 µM [inhibitor, single point]
CCc1ccc(C(C(=O)NCc2ccccc2)N(C(=O)c2csnn2)C2CC2)cc1 (stereo not given)	–	inconclusive: 18.5 µM [inhibitor, single point]
